In the test the target is T1, Flag-tagged TRF1, P54274.
T1 chain: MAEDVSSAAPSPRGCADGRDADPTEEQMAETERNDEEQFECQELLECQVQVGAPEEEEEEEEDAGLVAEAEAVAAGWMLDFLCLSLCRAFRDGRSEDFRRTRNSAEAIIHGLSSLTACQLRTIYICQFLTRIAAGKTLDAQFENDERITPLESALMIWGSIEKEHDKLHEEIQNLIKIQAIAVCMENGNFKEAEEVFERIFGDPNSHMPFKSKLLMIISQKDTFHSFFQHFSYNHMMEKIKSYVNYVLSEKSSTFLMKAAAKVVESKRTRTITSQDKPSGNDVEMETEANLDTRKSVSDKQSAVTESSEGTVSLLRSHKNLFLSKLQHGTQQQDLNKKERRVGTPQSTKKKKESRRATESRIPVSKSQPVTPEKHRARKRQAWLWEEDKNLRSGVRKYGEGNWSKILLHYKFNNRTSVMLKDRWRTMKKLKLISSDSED
Briefly: co-IP; lysates of BJ^T cells stably expressing Flag-tagged vector, TRF1 or TRF1 fusion proteins; NETN lysis buffer; anti-Flag agarose beads, 4 °C, 30 min; Western blot for endogenous TRIM28; also done after Benzonase treatment of the lysates. Conditions: remark: other sources report otherwise. (In general: Immunoblotting shows a protein as a band on a membrane.)

Results are given in words; binding and its absence hold for the method and conditions named. In cells and extracts the contact can be indirect. Where a sequence is shown, tags or fusion partners need not be part of it.

B1: TRIM28 (Tripartite motif-containing 28), endogenous, Q13263 1-835 (protein)
chain: MAASAAAASAAAASAASGSPGPGEGSAGGEKRSTAPSAAASASASAAASSPAGGGAEALELLEHCGVCRERLRPEREPRLLPCLHSACSACLGPAAPAAANSSGDGGAAGDGTVVDCPVCKQQCFSKDIVENYFMRDSGSKAATDAQDANQCCTSCEDNAPATSYCVECSEPLCETCVEAHQRVKYTKDHTVRSTGPAKSRDGERTVYCNVHKHEPLVLFCESCDTLTCRDCQLNAHKDHQYQFLEDAVRNQRKLLASLVKRLGDKHATLQKSTKEVRSSIRQVSDVQKRVQVDVKMAILQIMKELNKRGRVLVNDAQKVTEGQQERLERQHWTMTKIQKHQEHILRFASWALESDNNTALLLSKKLIYFQLHRALKMIVDPVEPHGEMKFQWDLNAWTKSAEAFGKIVAERPGTNSTGPAPMAPPRAPGPLSKQGSGSSQPMEVQEGYGFGSGDDPYSSAEPHVSGVKRSRSGEGEVSGLMRKVPRVSLERLDLDLTADSQPPVFKVFPGSTTEDYNLIVIERGAAAAATGQPGTAPAGTPGAPPLAGMAIVKEEETEAAIGAPPTATEGPETKPVLMALAEGPGAEGPRLASPSGSTSSGLEVVAPEGTSAPGGGPGTLDDSATICRVCQKPGDLVMCNQCEFCFHLDCHLPALQDVPGEEWSCSLCHVLPDLKEEDGSLSLDGADSTGVVAKLSPANQRKCERVLLALFCHEPCRPLHQLATDSTFSLDQPGGTLDLTLIRARLQEKLSPPYSSPQEFAQDVGRMFKQFNKLTEDKADVQSIIGLQRFFETRMNEAFGDTKFSAVLVEPPPMSLPGAGLSSQELSGGPGDGP
On to B1, for which the binding result was “no binding”.

The values are drawn from paper PMC13187458.
